These are yes or no findings as the source states them, for the method shown. Some binding calls cover weakened binding; strength is not graded here.
Molecular target: CAPN1[C115S]-3xFlag-6xHis (human) (UniProt P07384)
Assay: co-purification on HisPure beads after co-expression; His-tagged calpain large subunit and CAPNS1 coexpressed in E. coli from PetDuet-1; lysate on HisPure beads, washed with 1.5x TBS + 20 mM imidazole, eluted with 300 mM imidazole

Protein sequences, listed by entry. Tags and fused reporters are not part of them. Lines headed by an entry give the natural chain unless they say otherwise; changes in a name come on top.
UniProt P07384: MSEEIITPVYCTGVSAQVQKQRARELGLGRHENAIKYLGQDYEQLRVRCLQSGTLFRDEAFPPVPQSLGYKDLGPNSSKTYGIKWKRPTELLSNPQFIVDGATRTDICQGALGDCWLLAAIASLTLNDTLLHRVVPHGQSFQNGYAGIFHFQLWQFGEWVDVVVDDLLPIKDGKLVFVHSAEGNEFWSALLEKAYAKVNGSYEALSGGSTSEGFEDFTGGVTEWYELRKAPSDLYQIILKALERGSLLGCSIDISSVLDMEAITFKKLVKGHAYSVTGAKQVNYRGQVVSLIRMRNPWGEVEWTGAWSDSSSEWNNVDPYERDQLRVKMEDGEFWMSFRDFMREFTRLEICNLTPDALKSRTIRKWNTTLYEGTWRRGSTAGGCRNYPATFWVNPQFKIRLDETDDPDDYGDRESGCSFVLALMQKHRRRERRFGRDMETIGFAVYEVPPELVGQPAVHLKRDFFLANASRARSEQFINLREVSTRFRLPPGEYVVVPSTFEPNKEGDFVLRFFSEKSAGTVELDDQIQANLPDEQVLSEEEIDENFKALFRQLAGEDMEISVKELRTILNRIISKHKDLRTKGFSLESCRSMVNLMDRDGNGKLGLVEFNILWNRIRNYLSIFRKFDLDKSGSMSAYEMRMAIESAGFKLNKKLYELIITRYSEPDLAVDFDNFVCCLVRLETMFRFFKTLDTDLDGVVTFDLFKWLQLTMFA

binding: binds
B1: calpain small subunit, CAPNS1(86–268) (domain or fragment, UniProt P04632 86-268)
chain: HYSNIEANESEEVRQFRRLFAQLAGDDMEVSATELMNILNKVVTRHPDLKTDGFGIDTCRSMVAVMDSDTTGKLGFEEFKYLWNNIKRWQAIYKQFDTDRSGTICSSELPGAFEAAGFHLNEHLYNMIIRRYSDESGNMDFDNFISCLVRLDAMFRAFKSLDKDGTGQIQVNIQEWLQLTMYS
